Laboratory results: PubChem BioAssay AID248 (DTP/NCI, 2004)
The list shows only some results of the screen, not a fair sample: it is rich in T/C values a quarter to a half above the control, in often repeated tests (any T/C) and in doses without a T/C. Other doses and runs of a compound stand elsewhere. T/C gives the treated animals as a percentage of the vehicle group. Some entries give survivors of the animals treated and no T/C: the source holds a T/C of zero for them, seemingly a mark for toxic or unscored doses. Some doses without a T/C left all or most animals alive at the check, yet need not have been tolerated: survival well below the control is almost never listed, so the zero probably covers shortened survival too. Counts of survivors are from the toxicity check (mostly the fifth day) where no day follows; animals may have died later. Schedules are NCI's codes, read here as Q, the interval in days (D) or hours (H), X, the number of doses. Some doses were run more than once; the results are listed from low to high. Where survival is the endpoint, the PubChem record calls one and a half times the control and up active, and a quarter to a half above the control has no call in these data; cut-offs in other NCI protocols can differ. Some T/C values are followed by the survivors on the day toxicity was checked, most often the fifth; without a count, all were alive then. Brackets with × count equal records among those shown. Some schedule codes hold Z or #, which are not explained here.

Test system: L1210 leukemia ip in BDF1 mice, survival T/C
Test: NCI In Vivo Anticancer Drug Screen. Data for tumor model L1210 Leukemia (intraperitoneal) in B6D2F1 (BDF1) mice
Conditions: T/C endpoint: mean survival time, higher T/C = longer survival
[1] = dose: 100.0 mg/kg/injection, schedule: Q01DX009 (ip), vehicle: Klucel (hydroxypropylcellulose) (HPC)
[2] = dose: 400.0 mg/kg/injection, schedule: Q01DX009 (ip), vehicle: Klucel (hydroxypropylcellulose) (HPC)
[3] = dose: 400.0 mg/kg/injection, schedule: Q04DX003 (ip), vehicle: Klucel (hydroxypropylcellulose) (HPC)
[4] = dose: 400.0 mg/kg/injection, schedule: Q04DX002 (ip), vehicle: Klucel (hydroxypropylcellulose) (HPC)
[5] = dose: 100.0 mg/kg/injection, schedule: Q01DX005 (ip), vehicle: saline
[6] = dose: 200.0 mg/kg/injection, schedule: Q01DX005 (ip), vehicle: saline
[7] = dose: 400.0 mg/kg/injection, schedule: Q01DX005 (ip), vehicle: saline

In the case of ClN=C(c1ccccc1)c1ccccc1, the survivor count [1] is reported as 3 of 6, the survivor count (dose: 200.0 mg/kg/injection, schedule: Q01DX009 (ip), vehicle: Klucel (hydroxypropylcellulose) (HPC)) is reported as 1 of 6 and the survivor count [2] is reported as 0 of 6. The survivor count [3] was 2 of 6.
In the case of CSc1ccc(NCN2C(=O)c3ccccc3C2=O)cc1, the survivor count [2] is reported as 5 of 6.
CN(C)c1ccc(N=Nc2cc(Cl)cc(Cl)c2)cc1 was tested, and the survivor count (dose: 400.0 mg/kg/injection, schedule: Q01DX001 (ip), vehicle: carboxymethylcellulose (CMC)) was 6 of 6.
In the case of O=C(c1ccco1)C(O)c1ccco1 (configuration not stated), the survivor count [4] is reported as 1 of 3.
With Nc1nc(=O)n(C2OC(CO)C(O)C2O)cc1F (configuration not stated) the T/C (dose: 0.19 mg/kg/injection, schedule: Q#A X020 (ip), vehicle: saline) was 131 and 140 % of control, the T/C (dose: 0.38 mg/kg/injection, schedule: Q01DX010 (ip), vehicle: saline) was 132 % of control and the T/C (dose: 0.75 mg/kg/injection, schedule: Q01DX010 (ip), vehicle: saline) was 149 % of control. For the same compound, the T/C (dose: 0.75 mg/kg/injection, schedule: Q01DX010 (sc), vehicle: saline) was 129 % of control, the T/C (dose: 1.25 mg/kg/injection, schedule: Q03DX004 (ip), vehicle: saline) was 130 % of control and the T/C (dose: 1.5 mg/kg/injection, schedule: Q01DX010 (im), vehicle: saline) was 142 % of control. For the same compound, the T/C (dose: 1.5 mg/kg/injection, schedule: Q01DX010 (sc), vehicle: saline) was 137 % of control, the T/C (dose: 3.0 mg/kg/injection, schedule: Q01DX010 (ip), vehicle: saline) was 149 % of control [5 of 6 alive] and the T/C (dose: 5.0 mg/kg/injection, schedule: Q07DX002 (ip), vehicle: saline) was 130 % of control. For the same compound, the T/C (dose: 6.0 mg/kg/injection, schedule: Q01DX006 (iv), vehicle: saline) was 143 % of control, the T/C (dose: 8.0 mg/kg/injection, schedule: Q01DX009 (oral), vehicle: saline) was 131 % of control and the T/C (dose: 10.0 mg/kg/injection, schedule: Q07DX002 (ip), vehicle: saline) was 127 % of control. For the same compound, the T/C (dose: 12.0 mg/kg/injection, schedule: Q#A X020 (ip), vehicle: saline) was 149 % of control, the T/C (dose: 12.5 mg/kg/injection, schedule: Q01DX010 (oral), vehicle: saline) was 144 % of control and the T/C (dose: 16.0 mg/kg/injection, schedule: Q01DX009 (oral), vehicle: saline) was 135 % of control. For the same compound, the T/C (dose: 20.0 mg/kg/injection, schedule: Q01DX001 (ip), vehicle: saline) was 126 and 131 % of control, the T/C (dose: 20.0 mg/kg/injection, schedule: Q01DX005 (ip), vehicle: saline) was 143 and 146 % of control and the T/C (dose: 20.0 mg/kg/injection, schedule: Q07DX002 (ip), vehicle: saline) was 136 % of control. The T/C (dose: 20.0 mg/kg/injection, schedule: Q07DX Z (ip), vehicle: saline) was 137 % of control, the T/C (dose: 32.0 mg/kg/injection, schedule: Q01DX009 (oral), vehicle: saline) was 144 % of control and the T/C (dose: 40.0 mg/kg/injection, schedule: Q01DX001 (ip), vehicle: saline) was 132 % of control. For the same compound, the T/C (dose: 40.0 mg/kg/injection, schedule: Q01DX005 (ip), vehicle: saline) was 144 % of control, the T/C (dose: 40.0 mg/kg/injection, schedule: Q07DX Z (ip), vehicle: saline) was 137 % of control and the T/C (dose: 50.0 mg/kg/injection, schedule: Q01DX005 (ip), vehicle: saline) was 134 (2×), 156, 159, 160, 162 (2×), 164, 168, 169, 170, 179, 185 (2×), 193, 211 % of control [5 of 6 alive]. For the same compound, the T/C (dose: 80.0 mg/kg/injection, schedule: Q01DX001 (ip), vehicle: saline) was 125 and 140 % of control, the T/C (dose: 80.0 mg/kg/injection, schedule: Q07DX Z (ip), vehicle: saline) was 132 % of control and the T/C (dose: 96.0 mg/kg/injection, schedule: Q01DX010 (sc), vehicle: saline) was 146 % of control. The T/C [5] was 100, 102 [6 of 7 alive], 154, 155, 156, 162, 168, 175 (2×), 175 [6 of 7 alive], 176, 179 (2×), 187, 194, 195, 212, 217 % of control, the survivor count [5] was 6 of 6 and the T/C (dose: 160.0 mg/kg/injection, schedule: Q01DX001 (ip), vehicle: saline) was 127, 129, 134, 142 % of control. The T/C (dose: 160.0 mg/kg/injection, schedule: Q01DX005 (ip), vehicle: saline) was 143 % of control, the T/C [6] was 91, 117, 122, 146, 174, 175, 179 (2×), 186 (2×), 194, 220, 236, 272 % of control and the survivor count [6] was 6 of 7 and 6 of 6. For the same compound, the T/C (dose: 320.0 mg/kg/injection, schedule: Q01DX001 (ip), vehicle: saline) was 132 and 138 % of control, the T/C (dose: 400.0 mg/kg/injection, schedule: Q01DX001 (ip), vehicle: saline) was 127 % of control and the T/C [7] was 102, 143, 162, 168, 169 % of control. The survivor count [7] was 3 of 7, 3 of 6, 4 of 7, 6 of 7, 6 of 6, the T/C (dose: 512.0 mg/kg/injection, schedule: Q01DX001 (oral), vehicle: saline) was 125 % of control and the T/C (dose: 640.0 mg/kg/injection, schedule: Q01DX001 (ip), vehicle: saline) was 142 and 149 % of control. For the same compound, the T/C (dose: 1024.0 mg/kg/injection, schedule: Q01DX001 (oral), vehicle: saline) was 134 % of control.
For Oc1ccccc1C1CCCCC1, the survivor count (dose: 100.0 mg/kg/injection, schedule: Q01DX009 (ip), vehicle: gum acacia) was 6 of 6, the survivor count (dose: 200.0 mg/kg/injection, schedule: Q01DX009 (ip), vehicle: gum acacia) was 0 of 6 and the survivor count (dose: 400.0 mg/kg/injection, schedule: Q01DX009 (ip), vehicle: gum acacia) was 0 of 6.
With COC1C(O)C(CO)OC1n1cnc2c(=S)nc(N)[nH]c21 (configuration not stated) the T/C (dose: 50.0 mg/kg/injection, schedule: Q01DX001 (ip), vehicle: carboxymethylcellulose (CMC)) was 141 % of control, the T/C (dose: 100.0 mg/kg/injection, schedule: Q01DX001 (ip), vehicle: carboxymethylcellulose (CMC)) was 148 % of control and the T/C (dose: 177.0 mg/kg/injection, schedule: Q01DX001 (ip), vehicle: carboxymethylcellulose (CMC)) was 148 % of control. The T/C (dose: 200.0 mg/kg/injection, schedule: Q01DX001 (ip), vehicle: carboxymethylcellulose (CMC)) was 141 % of control.
In the case of COc1cc2[nH]c(C)c(CCN3CCN(c4ccccc4)CC3)c2cc1OC, the survivor count (dose: 50.0 mg/kg/injection, schedule: Q01DX009 (ip), vehicle: Klucel (hydroxypropylcellulose) (HPC)) is reported as 0 of 6, the survivor count (dose: 100.0 mg/kg/injection, schedule: Q04DX003 (ip), vehicle: Klucel (hydroxypropylcellulose) (HPC)) is reported as 0 of 4 and the survivor count (dose: 200.0 mg/kg/injection, schedule: Q04DX003 (ip), vehicle: Klucel (hydroxypropylcellulose) (HPC)) is reported as 0 of 4. For the same compound, the survivor count [3] was 0 of 4.
In the case of c1ccc(C2=NNc3cccc[n+]3C2)cc1, the survivor count (dose: 150.0 mg/kg/injection, schedule: Q01DX001 (ip), vehicle: other) is reported as 0 of 6 and the survivor count (dose: 300.0 mg/kg/injection, schedule: Q01DX001 (ip), vehicle: other) is reported as 1 of 6.
For ON(C(=NC1CCCCC1)c1ccccc1)c1ccccc1, the survivor count (dose: 75.0 mg/kg/injection, schedule: Q01DX001 (ip), vehicle: carboxymethylcellulose (CMC)) was 3 of 6, the survivor count (dose: 150.0 mg/kg/injection, schedule: Q01DX001 (ip), vehicle: carboxymethylcellulose (CMC)) was 0 of 6 and the survivor count (dose: 300.0 mg/kg/injection, schedule: Q01DX001 (ip), vehicle: carboxymethylcellulose (CMC)) was 0 of 6.
For Oc1cc2ccc3c(c2cc1O)CCc1cn[nH]c1-3, the survivor count (dose: 200.0 mg/kg/injection, schedule: Q01DX001 (ip), vehicle: saline with Tween-80) was 3 of 3.
With Cc1ncc(C(C)(O)c2ccc(Cl)cc2)n1Cc1ccccc1 (configuration not stated) the survivor count [1] was 3 of 3, the T/C (dose: 100.0 mg/kg/injection, schedule: Q04DX002 (ip), vehicle: Klucel (hydroxypropylcellulose) (HPC)) was 91, 95, 97, 101 % of control and the T/C (dose: 200.0 mg/kg/injection, schedule: Q04DX002 (ip), vehicle: Klucel (hydroxypropylcellulose) (HPC)) was 91, 95, 100, 102 % of control. For the same compound, the survivor count [2] was 3 of 3 and the T/C [4] was 91, 106, 107, 138 % of control.
In the case of O=c1cc[nH]c(=O)o1, the T/C (dose: 19.0 mg/kg/injection, schedule: Q01DX009 (ip), vehicle: water) is reported as 129 % of control [9 of 10 alive], the T/C (dose: 28.0 mg/kg/injection, schedule: Q01DX009 (ip), vehicle: water) is reported as 127 % of control and the T/C (dose: 42.0 mg/kg/injection, schedule: Q01DX009 (ip), vehicle: water) is reported as 133 % of control.
